Reference: paper PMC5992170, “Modular ssDNA binding and inhibition of telomerase activity by designer PPR proteins”

Legend:
[1] = test system: T1, cPPR-Telo1 (synthetic construct); assay: competition with a labelled probe; details: up to 100:1 over telomeric probe; EMSA: 10 mM HEPES pH 8.0, 1 mM EDTA, 50 mM KCl, 2 mM DTT, 0.1 mg/ml BSA, 0.02% Tween-20, room temperature 30 min, 0.83 uM probe; recombinant protein; protein details: GST-His (pETM30); single-stranded DNA
T1 sequence (looked up, limits assumed): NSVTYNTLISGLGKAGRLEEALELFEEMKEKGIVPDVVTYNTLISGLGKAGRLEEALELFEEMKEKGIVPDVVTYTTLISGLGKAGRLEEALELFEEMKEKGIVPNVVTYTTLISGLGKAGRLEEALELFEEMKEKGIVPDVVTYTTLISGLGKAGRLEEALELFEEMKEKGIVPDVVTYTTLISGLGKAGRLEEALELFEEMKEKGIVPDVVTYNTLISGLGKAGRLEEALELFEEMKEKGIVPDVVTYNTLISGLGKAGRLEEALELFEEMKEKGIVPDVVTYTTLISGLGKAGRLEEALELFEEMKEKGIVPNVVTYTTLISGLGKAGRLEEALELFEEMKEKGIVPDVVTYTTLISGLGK

[2] = test system: T1, cPPR-Telo1 (synthetic construct); assay: EMSA; details: off-target control; EMSA: 10 mM HEPES pH 8.0, 1 mM EDTA, 50 mM KCl, 2 mM DTT, 0.1 mg/ml BSA, 0.02% Tween-20, room temperature 30 min, 0.83 uM probe; recombinant protein; protein details: GST-His (pETM30); label: 5'-fluorescein via hexaethyleneglycol spacer; single-stranded DNA

## CTAGACCTGTCATCA [non-specific competitor ssDNA]
[1]
  binding result: no binding

## CCCCCCCCCC [Poly(C)]
[2]
  binding result: no binding

Construct, isoform or probe ends are uncertain for at least one entry. No signal at the amounts used counts as a negative. At least one verdict was read from the data and is not stated in words by the source. Protein sequences can lack the tags named with them.
